Data as given in PubChem BioAssay AID652272 (Drosophila RNAi Screening Center, 2013).

Purpose: 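Genome-wide knock-down search for components of Hedgehog signalling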 (primary screen)
Cell system: Drosophila clone 8 (Cl8) cells
Reagent: long dsRNA against Drosophila genes
Measured: 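Firefly light from a Hedgehog-responsive ptc promoter reporter and Renilla reference light, both read on a plate reader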
Direction: firefly Hh reporter signal: higher = more ptc reporter light; Renilla reference signal: higher = more Renilla control light
Hit rule: 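Hit when the z-score averaged over two replicates is under -2 or over +3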
Calls: active = hit: reporter lowered or raised; inactive = not a hit
In all, the deposit lists about 21,000 reagents; below is a random part of those that have a named target and a result. Over the whole deposit, 503 (2.4%) got an active call. 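Raw plate light values, not normalised; calls rest on replicate z-scores that were not deposited; hits include reporter decreases as well as increases.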 Not given: the amount of reagent, the time to read-out.

CG15140 [DRSC02440]
- firefly Hh reporter signal, replicate 1: 1.02e5
- firefly Hh reporter signal, replicate 2: 64146
- Renilla reference signal, replicate 1: 2320
- Renilla reference signal, replicate 2: 5657
- Call: inactive

PolG1 [DRSC03621]
- firefly Hh reporter signal, replicate 1: 1.98e5
- firefly Hh reporter signal, replicate 2: 1.02e5
- Renilla reference signal, replicate 1: 5522
- Renilla reference signal, replicate 2: 9187
- Call: inactive

Crtp [DRSC04604]
- firefly Hh reporter signal, replicate 1: 1.07e5
- firefly Hh reporter signal, replicate 2: 60553
- Renilla reference signal, replicate 1: 2012
- Renilla reference signal, replicate 2: 5801
- Call: inactive

vsg [DRSC10219]
- firefly Hh reporter signal, replicate 1: 29824
- firefly Hh reporter signal, replicate 2: 65810
- firefly Hh reporter signal, replicate 3: 50588
- Renilla reference signal, replicate 1: 7296
- Renilla reference signal, replicate 2: 4033
- Call: inactive

CG12723 [DRSC19499]
- firefly Hh reporter signal, replicate 1: 95338
- firefly Hh reporter signal, replicate 2: 3.26e5
- Renilla reference signal, replicate 1: 2999
- Renilla reference signal, replicate 2: 11369
- Call: inactive

Ac78C [DRSC11467]
- firefly Hh reporter signal, replicate 1: 2.71e5
- Renilla reference signal, replicate 1: 5956
- Call: inactive

Ac78C [DRSC11602]
- firefly Hh reporter signal, replicate 1: 69514
- firefly Hh reporter signal, replicate 2: 1.10e5
- Renilla reference signal, replicate 1: 1901
- Renilla reference signal, replicate 2: 3140
- Call: inactive

Ac78C [DRSC11619]
- firefly Hh reporter signal, replicate 1: 81572
- firefly Hh reporter signal, replicate 2: 1.43e5
- Renilla reference signal, replicate 1: 2490
- Renilla reference signal, replicate 2: 4032
- Call: inactive

Ald1 [DRSC14109]
- firefly Hh reporter signal, replicate 1: 82995
- firefly Hh reporter signal, replicate 2: 89804
- Renilla reference signal, replicate 1: 1840
- Renilla reference signal, replicate 2: 2311
- Call: inactive

CG12746 [DRSC12218]
- firefly Hh reporter signal, replicate 1: 1.38e5
- firefly Hh reporter signal, replicate 2: 96553
- Renilla reference signal, replicate 1: 5014
- Renilla reference signal, replicate 2: 4077
- Call: inactive

CG1896 [DRSC15397]
- firefly Hh reporter signal, replicate 1: 94998
- firefly Hh reporter signal, replicate 2: 65125
- Renilla reference signal, replicate 1: 2242
- Renilla reference signal, replicate 2: 2007
- Call: inactive

Hr96 [DRSC16707]
- firefly Hh reporter signal, replicate 1: 93479
- firefly Hh reporter signal, replicate 2: 98839
- Renilla reference signal, replicate 1: 3984
- Renilla reference signal, replicate 2: 4136
- Call: inactive
